Numbering of substitutions follows the chain as printed. No constants are given. Whether binding was seen depends on the method and setting. Some entries that bind do so weakly or less than the wild type. Sequences can lack the tags named with a protein.
Experiments:
Test in all cases: two-hybrid; yeast two-hybrid with pBTM116 (LexA) and pACT2 fusions; β-galactosidase activity in cell extracts, in triplicate from at least three clones
[1] = target: T1, Mcm10Δ110 (LexA fusion) (S. cerevisiae) (UniProt P32354)
T1 sequence: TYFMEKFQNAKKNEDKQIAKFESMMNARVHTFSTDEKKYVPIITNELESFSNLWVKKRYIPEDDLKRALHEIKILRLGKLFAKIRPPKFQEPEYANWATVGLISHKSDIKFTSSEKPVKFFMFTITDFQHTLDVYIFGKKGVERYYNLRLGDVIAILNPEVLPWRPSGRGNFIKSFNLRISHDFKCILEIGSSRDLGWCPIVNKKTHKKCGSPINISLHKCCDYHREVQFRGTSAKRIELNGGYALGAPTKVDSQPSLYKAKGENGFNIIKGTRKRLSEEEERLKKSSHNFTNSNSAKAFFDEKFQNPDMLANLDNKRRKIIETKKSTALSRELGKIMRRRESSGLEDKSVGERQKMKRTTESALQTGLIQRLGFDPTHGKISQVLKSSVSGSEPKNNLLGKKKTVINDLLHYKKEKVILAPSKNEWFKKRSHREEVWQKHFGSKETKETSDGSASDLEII

[2] = target: T2, Mcm10Δ50 (LexA fusion) (S. cerevisiae) (UniProt P32354)
T2 sequence: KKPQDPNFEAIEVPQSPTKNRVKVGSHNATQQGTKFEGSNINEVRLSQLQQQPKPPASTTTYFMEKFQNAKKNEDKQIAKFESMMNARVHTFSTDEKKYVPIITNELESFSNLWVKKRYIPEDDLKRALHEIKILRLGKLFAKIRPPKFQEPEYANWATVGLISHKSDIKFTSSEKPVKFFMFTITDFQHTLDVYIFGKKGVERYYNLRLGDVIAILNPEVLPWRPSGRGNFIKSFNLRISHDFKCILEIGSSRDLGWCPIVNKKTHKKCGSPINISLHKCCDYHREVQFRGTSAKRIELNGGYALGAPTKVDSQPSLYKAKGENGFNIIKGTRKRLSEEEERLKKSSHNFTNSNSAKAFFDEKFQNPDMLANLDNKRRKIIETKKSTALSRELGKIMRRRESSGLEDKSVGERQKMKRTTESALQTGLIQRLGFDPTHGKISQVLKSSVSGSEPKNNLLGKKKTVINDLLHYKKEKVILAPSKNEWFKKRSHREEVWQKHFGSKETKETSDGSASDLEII

[3] = target: T3, Mcm10 Y245A (two-hybrid fusion) (S. cerevisiae) (UniProt P32354)
T3 sequence: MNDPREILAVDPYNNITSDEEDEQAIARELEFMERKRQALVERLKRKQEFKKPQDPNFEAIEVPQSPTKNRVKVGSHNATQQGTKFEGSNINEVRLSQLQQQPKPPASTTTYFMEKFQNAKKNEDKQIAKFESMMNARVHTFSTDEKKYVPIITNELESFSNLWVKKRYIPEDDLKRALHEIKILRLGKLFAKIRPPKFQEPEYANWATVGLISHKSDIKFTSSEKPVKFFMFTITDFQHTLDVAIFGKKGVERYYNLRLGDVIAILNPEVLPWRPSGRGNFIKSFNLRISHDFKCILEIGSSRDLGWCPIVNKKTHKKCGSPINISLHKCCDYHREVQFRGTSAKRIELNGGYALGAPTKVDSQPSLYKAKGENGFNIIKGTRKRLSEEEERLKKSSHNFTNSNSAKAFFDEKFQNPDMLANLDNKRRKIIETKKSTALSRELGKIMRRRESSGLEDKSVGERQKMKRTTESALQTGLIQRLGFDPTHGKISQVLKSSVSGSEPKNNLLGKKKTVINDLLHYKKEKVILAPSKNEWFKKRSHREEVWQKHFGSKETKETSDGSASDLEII

[4] = target: T4, Mcm10Δ100 (LexA fusion) (S. cerevisiae) (UniProt P32354)
T4 sequence: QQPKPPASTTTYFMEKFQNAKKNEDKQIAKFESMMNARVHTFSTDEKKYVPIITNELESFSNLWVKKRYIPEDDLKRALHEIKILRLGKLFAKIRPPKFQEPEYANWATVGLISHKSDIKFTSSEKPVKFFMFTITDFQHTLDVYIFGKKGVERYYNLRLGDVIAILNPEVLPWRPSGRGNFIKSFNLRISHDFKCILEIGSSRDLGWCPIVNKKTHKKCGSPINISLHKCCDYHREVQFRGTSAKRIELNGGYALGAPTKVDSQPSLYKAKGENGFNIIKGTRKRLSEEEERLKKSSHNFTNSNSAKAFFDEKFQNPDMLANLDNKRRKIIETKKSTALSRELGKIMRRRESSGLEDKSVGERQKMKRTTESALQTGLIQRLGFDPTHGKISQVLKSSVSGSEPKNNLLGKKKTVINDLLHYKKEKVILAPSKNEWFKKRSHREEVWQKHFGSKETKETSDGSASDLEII

[5] = target: T5, Mcm10 (LexA fusion, wild type) (S. cerevisiae) (UniProt P32354)
T5 sequence: T3 sequence with A245Y

- binding [1]: binds
- binding [2]: binds
- binding [3]: binds weakly
- binding [4]: binds
- binding [5]: binds
B1: Mec3 (pACT2 fusion, wild type) (protein, UniProt Q02574 1-474)
chain: MKLKLIVNGCEAPDDYKLLRTTINTVASLRKTAILRFNSERLTIISTPKSSLNSSNNGTILRGDTGQLWCTIPHDVFRLYTVISARELNTITMECNCDSLLSVFKRYDRVMNQGSSSNMTIKLQSMPEWNTNNGTLSGGTAGGVDTTSKPNPICALGITFEEIVHTSGPNDAIVMNGGVDEHNGLPTTVGTGNLLASNKVIMHSFKVPVKLLFRAQDTRIQEPMINYIQLMMYKLPPISGEFGSAFHGFIRRVERYSNVNHIHLMGVKKKEHGNEGDDVELKIIVNELDWHLEICWNGPLDSVIQRQEGLTDNPSQNQHIDTDGRQEEGSLPIIEADKPMSSLYTNTRDREMEENIRYDEDLLRIEDSSIADTRGNIYTADTSGDTEFNDISVMVEKAEQESSSTHEVIIRCKDWKVCSKLYAAFEEVVLAISHDESCVFHCSLDRGSLEDSEDVEKPRERGQIIYYIARSKGL
